Our source for the activity, negative = inhibition values is PubChem BioAssay AID588590 (National Center for Advancing Translational Sciences (NCATS), 2011).

Chains of the proteins cited; added tags and fusions are not shown. Lines headed by an entry give the natural chain unless they say otherwise; changes in a name come on top.
UniProt Q9UNA4: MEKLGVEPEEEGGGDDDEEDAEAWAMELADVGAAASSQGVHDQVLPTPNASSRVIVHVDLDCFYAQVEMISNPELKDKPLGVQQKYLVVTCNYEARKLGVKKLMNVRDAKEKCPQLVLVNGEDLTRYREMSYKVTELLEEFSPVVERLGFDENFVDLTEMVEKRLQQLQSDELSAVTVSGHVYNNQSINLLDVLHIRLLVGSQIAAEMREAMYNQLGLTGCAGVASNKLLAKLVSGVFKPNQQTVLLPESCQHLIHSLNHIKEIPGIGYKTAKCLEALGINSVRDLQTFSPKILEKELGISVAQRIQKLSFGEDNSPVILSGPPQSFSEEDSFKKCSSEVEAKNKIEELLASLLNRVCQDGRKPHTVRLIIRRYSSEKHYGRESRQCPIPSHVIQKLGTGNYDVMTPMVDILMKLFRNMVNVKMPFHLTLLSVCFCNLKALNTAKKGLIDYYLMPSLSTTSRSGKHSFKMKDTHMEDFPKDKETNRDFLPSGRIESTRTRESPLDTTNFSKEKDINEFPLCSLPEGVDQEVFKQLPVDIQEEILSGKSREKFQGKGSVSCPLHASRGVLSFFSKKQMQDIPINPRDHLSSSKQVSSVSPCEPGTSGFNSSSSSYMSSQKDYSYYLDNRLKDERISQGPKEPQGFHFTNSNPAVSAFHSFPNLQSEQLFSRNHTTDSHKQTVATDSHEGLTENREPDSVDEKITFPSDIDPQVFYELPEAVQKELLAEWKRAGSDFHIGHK

Most of the hits are listed elsewhere, so they are rarer here than in the full data. Records with an inconclusive call do not appear. The source made the active and inactive calls. Calls follow the shape of the dose curve; as a rule, active = well fitted inhibition curve with a large enough effect; inconclusive = small, poorly fitted or top-dose-only effect, or another doubt; inactive = no such curve, though single readings can be large or run the other way.

The test deals with DNA polymerase iota (Homo sapiens) (UniProt Q9UNA4). The experiment in a line: qHTS for Inhibitors of Polymerase Iota. Conditions: Pol iota fluorescent replication assay, 10 min; at 115 µM (top of the series). From the text: DNA polymerases, such as Pol iota, are specifically involved in DNA repair. Pol iota specifically plays an important role in translesion synthesis, where the normal high-fidelity DNA polymerases cannot proceed and DNA synthesis stalls. […] Thus, while pol eta's (and most likely iota's) normal function is to protect humans against the deleterious consequences of DNA damage, under certain conditions they can have deleterious effects on human health. As a consequence, we propose to utilize a high throughput replication assay to identify small molecule inhibitors of pol iota.
In a collaboration between the National Institute of Child Health & Human Development (NICHD) and NIH Chemical Genomics Center, a high-throughput, fluorescent screen was developed to screen the NIH Molecular Libraries Small Molecule Repository (MLSMR). This screen is used to identify inhibitors of pol iota.
NIH Chemical Genomics Center [NCGC]
NIH Molecular Libraries Probe Centers Network [MLPCN] […]
Three microliters of reagents (buffer in column 3 and 4 as negative control and 10 nM Pol iota in columns 1, 2, and 5-48) will be dispensed into 1,536-well black solid-bottomed plate. […] The plates will then be incubated for 15 min at room temperature, and 1 µL substrate (50 nM final concentration) will be added to start the reaction and kinetically read twice at 0 min and 10 min on the Viewlux reader.
On to `COc1c(O)cc2c(c1OC)-c1ccc(OC)c(=O)cc1C(NC(C)=O)CC2` (stereo unspecified), for which the activity, negative = inhibition is inactive: 28.2%.
